This note sets out measurements from PMC8546544.

Amino acid sequences for entries named in this document (tags omitted). Residues count along the entry.
UniProt O15118, residues 23-1278: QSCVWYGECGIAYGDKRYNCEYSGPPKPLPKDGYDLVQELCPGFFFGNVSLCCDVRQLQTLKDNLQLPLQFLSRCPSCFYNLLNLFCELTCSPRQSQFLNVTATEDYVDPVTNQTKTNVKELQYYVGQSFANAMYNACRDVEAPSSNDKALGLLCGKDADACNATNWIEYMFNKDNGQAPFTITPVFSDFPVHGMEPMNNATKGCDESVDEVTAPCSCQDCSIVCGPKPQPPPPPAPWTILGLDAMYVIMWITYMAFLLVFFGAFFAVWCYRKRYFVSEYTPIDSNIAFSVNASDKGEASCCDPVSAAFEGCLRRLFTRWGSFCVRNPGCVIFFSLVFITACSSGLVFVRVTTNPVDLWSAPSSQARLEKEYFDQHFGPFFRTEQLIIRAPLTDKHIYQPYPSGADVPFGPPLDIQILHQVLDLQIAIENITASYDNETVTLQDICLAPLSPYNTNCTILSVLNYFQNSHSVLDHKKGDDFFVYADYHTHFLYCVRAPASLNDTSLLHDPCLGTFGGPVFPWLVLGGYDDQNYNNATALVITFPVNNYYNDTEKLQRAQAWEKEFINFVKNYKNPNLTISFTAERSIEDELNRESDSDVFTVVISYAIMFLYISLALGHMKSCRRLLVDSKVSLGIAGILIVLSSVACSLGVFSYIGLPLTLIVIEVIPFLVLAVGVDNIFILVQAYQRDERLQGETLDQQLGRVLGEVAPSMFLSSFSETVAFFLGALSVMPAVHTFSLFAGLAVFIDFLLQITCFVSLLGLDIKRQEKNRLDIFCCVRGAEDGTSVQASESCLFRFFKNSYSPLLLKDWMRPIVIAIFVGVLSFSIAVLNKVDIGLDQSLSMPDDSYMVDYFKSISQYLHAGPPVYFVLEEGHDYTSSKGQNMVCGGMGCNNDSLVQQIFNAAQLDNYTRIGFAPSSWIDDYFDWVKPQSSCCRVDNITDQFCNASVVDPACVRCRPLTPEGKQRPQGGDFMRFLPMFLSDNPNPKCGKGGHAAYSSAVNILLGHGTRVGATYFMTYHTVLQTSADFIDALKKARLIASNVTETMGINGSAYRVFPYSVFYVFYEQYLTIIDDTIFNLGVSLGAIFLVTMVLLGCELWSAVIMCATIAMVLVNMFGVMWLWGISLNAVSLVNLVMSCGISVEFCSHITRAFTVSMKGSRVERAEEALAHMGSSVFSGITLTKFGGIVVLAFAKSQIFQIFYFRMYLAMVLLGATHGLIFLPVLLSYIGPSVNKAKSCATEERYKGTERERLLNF

Substitutions are numbered along the chain they refer to. These are yes or no findings as the source states them, for the method shown. Binding seen in cells or lysates may run through a third protein. Some results given as binding are weak or reduced against the parent protein; the word gives no strength. For some of these results: Where a sequence is shown, tags or fusion partners need not be part of it.

Assay [1] addresses T1, endogenous flotillin 2 (FLOT2) (human (endogenous in HEK293T)) (UniProt Q14254).
T1 sequence: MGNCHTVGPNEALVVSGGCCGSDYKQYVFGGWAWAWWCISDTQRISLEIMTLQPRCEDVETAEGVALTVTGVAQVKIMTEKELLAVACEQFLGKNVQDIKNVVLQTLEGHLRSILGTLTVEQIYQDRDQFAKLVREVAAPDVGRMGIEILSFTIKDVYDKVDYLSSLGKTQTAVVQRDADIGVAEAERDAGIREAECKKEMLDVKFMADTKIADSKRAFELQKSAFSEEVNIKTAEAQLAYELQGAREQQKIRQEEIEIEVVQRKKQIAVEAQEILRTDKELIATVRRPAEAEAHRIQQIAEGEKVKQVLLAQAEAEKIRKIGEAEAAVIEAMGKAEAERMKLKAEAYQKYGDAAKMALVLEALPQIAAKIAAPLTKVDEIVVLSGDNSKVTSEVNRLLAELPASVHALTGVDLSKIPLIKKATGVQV
As to the kind of experiment: co-IP; whole-cell lysate of untransfected HEK293T cells (150 mM NaCl, 25 mM Tris-HCl pH 7.6, 1% NP-40) incubated with mouse monoclonal anti-FLOT2 or normal mouse IgG at 4°C overnight, protein G-agarose 2 h; Western blot.

For another assay, the target named is T2, FLOT2-GFP (human) (UniProt Q14254).
T2 sequence: T1 sequence
As to the kind of experiment: co-IP; lysate of transfected HEK293T cells (150 mM NaCl, 25 mM Tris-HCl pH 7.6, 1% NP-40) incubated with anti-GFP nanobody affinity gel at 4°C for 4 h; Western blot for the endogenous partner; in one panel cells were untreated, treated with 2.5 mM MβCD or with MβCD plus 20 μg/ml water-soluble cholesterol for 40 min before harvest (MβCD reduced, cholesterol restored the co-precipitate).

The target of the next assay is T3, FLOT2^1–183-GFP (human) (UniProt Q14254).
T3 sequence: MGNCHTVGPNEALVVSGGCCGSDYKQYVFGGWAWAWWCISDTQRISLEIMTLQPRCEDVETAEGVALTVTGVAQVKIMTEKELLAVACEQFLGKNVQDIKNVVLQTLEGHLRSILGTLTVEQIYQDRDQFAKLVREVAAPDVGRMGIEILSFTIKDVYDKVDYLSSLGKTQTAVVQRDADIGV
The description is as above.

Assay [2] addresses T4, FLOT2^Y124G/Y163G-GFP (human) (UniProt Q14254).
T4 sequence: T1 sequence with Y124G, Y163G
Described as above.

Turning to “endogenous Niemann-Pick type C1 (NPC1) (from UniProt O15118-1 23-1278)”, the binding result in assay [1] is “binds”; with FLOT2-GFP (human), “binds”; with FLOT2^1–183-GFP (human), “binds”; in assay [2] it was “no binding”.
